The assay in a line: qHTS Assay for Lipid Storage Modulators in Drosophila S3 Cells.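 As to cell number change: cells counted by Cell Tracker Red CMTPX staining in the red channel.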 To be noted: BODIPY lipid droplet fluorescence, 18-24 h; for cell number change: measured here: cell count max response, cells fed with added oleic acid. In outline: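 Laser-scanning cytometry quantifies lipid droplet accumulation (500–530 nm total intensity; droplet/cell object ratio) in oleic acid-fed (400 uM added) Drosophila S3 cells treated with a concentration series. 20 uM Triacsin C defined 100% inhibition.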

Where [1] appears, read: measured here: cell number channel AC50, cells fed with added oleic acid.
Setting [2] is: measured here: lipid fluorescence (Fed channel) AC50, cells fed with added oleic acid.

Usually AC50 stands for the concentration at which the activity in the assay is half-maximal. Read a low AC50 as greater potency.

Some of the results follow. Further columns of the screen follow, without active or inactive calls. Most of these compounds were active or inconclusive in the main read-out, so they are no random draw. Potencies come from curve fits of mixed quality, noted in brackets.

In the case of `CC(C)(C)NC(=O)COC(=O)CCC(=O)c1cccs1`, the cell number change is -39.1%. Under setting [1], the AC50 is 5.8 µM [falling, full curve, poor fit]. Also, the AC50 under setting [2] is 11.6 µM [falling, partial curve].
`COc1ccc(S(=O)(=O)NCc2nc3nc(C)cc(C)n3n2)cc1OC`: the cell number change stood at 17.9%. Also, the half-maximal activity concentration (AC50) under setting [2] was 18.4 µM [rising, partial curve].
As for `COc1cc(C)c(Br)cc1S(=O)(=O)NCCCN1CCOCC1`, the cell number change is 1.96%. Besides, the AC50 under setting [2] was 0.517 µM [rising, full curve, poor fit].
With `COc1cccc(-c2cc(C(=O)Nc3cccnc3)c3ccccc3n2)c1`, the AC50 under setting [2] was 11.6 µM [falling, single point].
Turning to `COc1cccc(-c2nn3c(-c4ccco4)nnc3s2)c1`, the cell number change is -11.8%.
On to `CCN(CC)C(=O)COc1cccc2ccccc12`, for which the cell number change amounted to 2.31%. Moreover, the AC50 under setting [2] was 2.06 µM [rising, partial curve].
Turning to `CC1CN(C(=O)c2cc([N+](=O)[O-])cc([N+](=O)[O-])c2)CC(C)O1` (stereo not drawn), the cell number change was -18.3%. In addition, the AC50 under setting [2] was 0.164 µM [falling, full curve, poor fit].
In the case of `O=C(c1ccc(Cl)c(S(=O)(=O)N2CCCCC2)c1)N1CCCCCC1`, the cell number change worked out at 3.24%. Further, under setting [2], the AC50 is 0.0517 µM [falling, full curve, poor fit].
Turning to `Cc1cc(N2C(=O)C(=O)/C(=C(/O)c3ccc(F)cc3)C2c2cccc(Br)c2)no1` (stereo not drawn), the cell number change is -32.2%. Moreover, the AC50 under setting [1] was 29.1 µM [falling, single point]. For the same compound, under setting [2], the AC50 is 0.82 µM [falling, full curve, poor fit].
With `Cc1ccc(NC(=O)c2ccc(C)c(NC3=NC4CS(=O)(=O)CC4S3)c2)cc1C` (stereo not drawn), the cell number change is 7.78%.
The same measure, in the same setting: then `Nc1cccc(NC(=O)CN2CCOCC2)c1`, with -1.17%.
In the case of `O=C(Nc1ccc2c(c1)OCCO2)c1c(F)c(F)c(F)c(F)c1F`, the cell number change was -23.5%. Further, under setting [1], the half-maximal activity concentration (AC50) was 1.3 µM [falling, full curve, poor fit]. For the same compound, under setting [2], the half-maximal activity concentration (AC50) was 14.6 µM [falling, partial curve].
`CCN(CC)CCOC(=O)c1ccc(NC(=O)CCCN2C(=O)/C(=C\c3cccs3)SC2=S)cc1`: the cell number change was -14.7%.
For the compound `O=C(c1ccccn1)N1CCCC(N2CCN(c3ccccc3)CC2)C1` (stereo not drawn), the AC50 under setting [1] is 0.82 µM [falling, full curve, poor fit].
For `C[C@@]12C(=O)Nc3cc(Cl)ccc3C(=O)N1[C@H]1c3ccccc3OC[C@@H]1[C@@H]2c1ccccc1`, the cell number change amounted to 0.132%.
Regarding `CCOC(=O)COc1cccc2c(=O)n(CC(=O)N3CCc4ccccc43)ccc12`, the AC50 under setting [2] was 5.8 µM [falling, single point].
Take `COc1ccc(CCC(=O)N2c3ccccc3CC2C)cc1` (stereo not drawn): under setting [1], the AC50 is 0.116 µM [falling, full curve, poor fit].
In the case of `O=C(CN(c1ccccn1)S(=O)(=O)c1ccccc1)Nc1ccccc1`, under setting [2], the AC50 was 6.51 µM [falling, single point].
As to `CC(Sc1nnc(CNc2cccc3ccccc23)n1-c1ccccc1)C(=O)N/N=C/c1ccco1` (stereo not drawn), the cell number change turned out to be 18.5%.
Same read-out and setting: then `Cn1c(SCC(=O)Nc2ccccc2F)nnc1C1CCCCC1`, with 6.16%.
For the compound `O=C(CN(C(=O)CNS(=O)(=O)c1ccc(F)cc1)c1cccc(F)c1)NCC1CCCO1` (stereo not drawn), the cell number change is 3.75%. In addition, the concentration at half-maximal activity (AC50) under setting [2] was 0.0058 µM [falling, full curve, poor fit].
With `Cc1noc(NS(=O)(=O)c2ccc(N/C=C\C(=O)c3ccccc3)cc2)c1C`, the cell number change was 32.8%. The AC50 under setting [1] was 20.6 µM [rising, single point].
For `COc1ccc(C2/C(=C(/O)c3ccccc3)C(=O)C(=O)N2CCCN2CCOCC2)cc1` (stereo not drawn), the cell number change was 4.38%.
For `CC(C)CC1(C(=O)NCCc2c[nH]c3ccccc23)C=CCN1C(=O)c1ccccc1` (stereo not drawn), the cell number change is -14.1%. Moreover, under setting [2], the AC50 is 9.2 µM [rising, partial curve].
Consider `O=C(Cn1nc2ccccc2n1)N/N=C/c1cc([N+](=O)[O-])ccc1O`, for which the cell number change amounted to 12.1%. Also, under setting [1], the AC50 is 0.00517 µM [rising, full curve, poor fit].
For `COC(=O)c1c(-c2ccc3ccccc3c2)csc1NC(=O)Cc1ccc(OC)c(OC)c1`, the cell number change worked out at 66.6%. Moreover, under setting [1], the AC50 is 32.6 µM [rising, single point].
`O=C(O)CCN(CCC(=O)O)c1nnc(SCc2ccccc2)s1`: the cell number change turned out to be 13.4%.
The same measure, in the same setting: in the case of `NC(=O)c1ccsc1NC(=O)CSc1nnc(Nc2ccccc2)s1` it was -16.9%.
Consider `C/C(=N\NC(=O)c1ccc(C)cc1)c1c(C)[nH]n(-c2ccccc2)c1=O`, for which the AC50 under setting [2] was 13 µM [falling, partial curve].
With `O=C1Nc2ccccc2N=C(c2ccccc2)c2ccccc21`, the cell number change turned out to be 21.4%. Further, the AC50 under setting [1] was 0.00461 µM [falling, full curve, poor fit]. In addition, the AC50 under setting [2] is 0.00461 µM [falling, full curve, poor fit].
For `O=C(COC(=O)c1ccccc1SCC(=O)NC1CCS(=O)(=O)C1)NC1CCS(=O)(=O)C1` (stereo not drawn), the cell number change is -10.8%. Also, the AC50 under setting [1] was 6.51 µM [falling, single point]. Moreover, under setting [2], the concentration at half-maximal activity (AC50) was 5.8 µM [falling, partial curve].
On to `S=c1[nH]nc(-c2ccco2)n1/N=C/c1c(Cl)cccc1Cl`, for which the cell number change is -16%. Also, the AC50 under setting [2] was 7.31 µM [falling, single point].
With `CCC(=O)N1CCc2cc(S(=O)(=O)NCCC(=O)Nc3ccc(OC)cc3)ccc21`, the cell number change was found to be 17.6%.
As for `CN(Cc1ccccc1)c1oc(COc2ccccc2F)nc1C#N`, the cell number change worked out at 23.8%. For the same compound, the half-maximal activity concentration (AC50) under setting [2] was 29.1 µM [rising, single point].
On to `O=[N+]([O-])c1nn(-c2cccc(Cl)c2)n(O)c1=NCc1cccnc1`, for which the cell number change turned out to be 95.8%. Further, the AC50 under setting [1] was 25.9 µM [rising, single point]. Further, under setting [2], the AC50 is 23.1 µM [rising, partial curve].
Consider `CCCCCCn1c(SCC(=O)c2ccccc2)nc2c1c(=O)[nH]c(=O)n2C`, for which the cell number change is 34.4%. In addition, under setting [1], the AC50 is 6.51 µM [rising, partial curve, poor fit].
On to `CN(C)S(=O)(=O)c1ccc(F)c(C(=O)Nc2ccccc2C(=O)NC2CC2)c1`, for which the cell number change is -52.3%. Besides, the AC50 under setting [2] was 29.1 µM [falling, single point].
On to `Cc1nc(SCC(=O)Nc2ccccc2C(F)(F)F)c(C#N)c(C)c1CC(=O)c1ccc(Br)cc1`, for which the cell number change was determined as 4.15%. Further, under setting [1], the AC50 is 1.46 µM [rising, partial curve]. The half-maximal activity concentration (AC50) under setting [2] was 1.64 µM [rising, partial curve].
Take `COc1cc(N2CCCC2)c(OC)cc1/C=C(/C#N)c1ccc(F)cc1`: the cell number change was -13.3%. Further, the AC50 under setting [2] is 16.4 µM [falling, partial curve, poor fit].
